Publication doi:10.1101/2024.07.23.604771
Results are given in words; binding and its absence hold for the method and conditions named. In cells and extracts the contact can be indirect. Some entries that bind do so weakly or less than the wild type.

Chains of the proteins cited; added tags and fusions are not shown.
UniProt Q2HRC8: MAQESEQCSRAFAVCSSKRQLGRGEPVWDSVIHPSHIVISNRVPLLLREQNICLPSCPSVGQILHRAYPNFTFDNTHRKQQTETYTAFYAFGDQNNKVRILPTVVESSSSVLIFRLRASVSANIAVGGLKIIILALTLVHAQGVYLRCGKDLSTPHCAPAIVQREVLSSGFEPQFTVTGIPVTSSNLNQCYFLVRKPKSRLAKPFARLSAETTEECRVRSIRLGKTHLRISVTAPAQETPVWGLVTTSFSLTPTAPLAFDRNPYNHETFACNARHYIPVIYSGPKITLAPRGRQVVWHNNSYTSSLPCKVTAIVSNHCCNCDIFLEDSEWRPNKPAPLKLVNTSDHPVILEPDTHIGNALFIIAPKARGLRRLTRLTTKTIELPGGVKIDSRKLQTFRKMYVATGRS

Molecular target: FLAG-ORF11 (KSHV) (UniProt Q2HRC8)
Assay: co-IP

Row | Binder | binding
1 | NOC4L (protein, UniProt Q9BVI4 1-516) MEREPGAAGVRRALGRRLEAVLASRSEANAVFDILAVLQSEDQEEIQEAVRTCSRLFGALLERGELFVGQLPSEEMVMTGSQGATRKYKVWMRHRYHSCCNRLGELLGHPSFQVKELALSALLKFVQLEGAHPLEKSKWEGNYLFPRELFKLVVGGLLSPEEDQSLLLSQFREYLDYDDTRYHTMQAAVDAVARVTGQHPEVPPAFWNNAFTLLSAVSLPRREPTVSSFYVKRAELWDTWKVAHLKEHRRVFQAMWLSFLKHKLPLSLYKKVLLIVHDAILPQLAQPTLMIDFLTRACDLGGALSLLALNGLFILIHKHNLEYPDFYRKLYGLLDPSVFHVKYRARFFHLADLFLSSSHLPAYLVAAFAKRLARLALTAPPEALLMVLPFICNLLRRHPACRVLVHRPHGPELDADPYDPGEEDPAQSRALESSLWELQALQRHYHPEVSKAASVINQALSMPEVSIAPLLELTAYEIFERDLKKKGPEPVPLEFIPAQGLLGRPGELCAQHFTLS | binds
2 | NOP14 (protein, UniProt P78316 1-857) MAKAKKVGARRKASGAPAGARGGPAKANSNPFEVKVNRQKFQILGRKTRHDVGLPGVSRARALRKRTQTLLKEYKERDKSNVFRDKRFGEYNSNMSPEEKMMKRFALEQQRHHEKKSIYNLNEDEELTHYGQSLADIEKHNDIVDSDSDAEDRGTLSAELTAAHFGGGGGLLHKKTQQEGEEREKPKSRKELIEELIAKSKQEKRERQAQREDALELTEKLDQDWKEIQTLLSHKTPKSENRDKKEKPKPDAYDMMVRELGFEMKAQPSNRMKTEAELAKEEQEHLRKLEAERLRRMLGKDEDENVKKPKHMSADDLNDGFVLDKDDRRLLSYKDGKMNVEEDVQEEQSKEASDPESNEEEGDSSGGEDTEESDSPDSHLDLESNVESEEENEKPAKEQRQTPGKGLISGKERAGKATRDELPYTFAAPESYEELRSLLLGRSMEEQLLVVERIQKCNHPSLAEGNKAKLEKLFGFLLEYVGDLATDDPPDLTVIDKLVVHLYHLCQMFPESASDAIKFVLRDAMHEMEEMIETKGRAALPGLDVLIYLKITGLLFPTSDFWHPVVTPALVCLSQLLTKCPILSLQDVVKGLFVCCLFLEYVALSQRFIPELINFLLGILYIATPNKASQGSTLVHPFRALGKNSELLVVSAREDVATWQQSSLSLRWASRLRAPTSTEANHIRLSCLAVGLALLKRCVLMYGSLPSFHAIMGPLQALLTDHLADCSHPQELQELCQSTLTEMESQKQLCRPLTCEKSKPVPLKLFTPRLVKVLEFGRKQGSSKEEQERKRLIHKHKREFKGAVREIRKDNQFLARMQLSEIMERDAERKRKVKQLFNSLATQEGEWKALKRKKFKK | binds
